Results of single-concentration screens

Each number is a percent effect as filed.
The controls that fix the scale are not given in the record; negative values are as filed.
Compounds were drawn at random from those tested, without regard to their results.

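Whole-cell growth test on Mycobacterium tuberculosis, read after 3 days in glucose-containing 7H9 medium; the read-out is not stated. Compounds at 500 µM. Higher reads as more growth inhibition (inferred: compounds with an IC50 in retests scored well above the rest). About 18,000 compounds were tested under these conditions; 7.9% (about 1,400) showed 50% or more at least once.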

structure	percent effect
CCCS(=O)(=O)N(C)CC(=O)N1CCC(C)CC1	13.58%
COC(=O)CCCC(=O)Nc1ncccc1Cl	-7.308%
CCc1nnsc1C(=O)NC(C)CN1CCOCC1 (centres unmarked)	-13.12%
CN1CN(c2cccc(F)c2C#N)CC1=O	4.22%
COC[C@@H]1CCCN1C(=O)Nc1cnns1	0.9428%
CC(NC(=O)c1ccc(Cl)c(S(C)(=O)=O)c1)C1CC1 (centres unmarked)	37.84%
Cc1ccnc(NCCNC(=O)C2CCOCC2)c1	10.98%
CSc1ccc(C(=O)NC(C)Cn2cncn2)cc1 (centres unmarked)	6.886%
COC(=O)NCCc1ccc(S(N)(=O)=O)s1	5.441%
CCC1Oc2c(Cl)cccc2NC1=O (centres unmarked)	25.32%
COc1cc(CNCCC(C)C)ccc1OCC(N)=O	9.436%
N[C@@H]1CCN(Cc2ccc(C(F)(F)F)nc2)C[C@H]1O	9.67%
CS(=O)(=O)NCc1ccnc(O)c1	-1.616%
CCN(CC)C(=O)COC(=O)c1c(C)nsc1N	-11.44%
O=C(CN1C(=O)CC2(CCCC2)C1=O)NCC1CC1	32.1%
COc1ccc(CNC(=O)c2cnsn2)cc1	-15.02%
N#Cc1ccc(NC(=O)CCN2CCC[C@H]2CO)cc1	6.915%
CC1CCN(C(=O)CC(N)c2ccccc2)CC1 (centres unmarked)	44.6%
O=C(Nc1ncc(Br)cn1)c1ccco1	39.18%
CSCc1cccc(C(=O)NC2CCN(C)CC2)c1	-6.478%
NS(=O)(=O)c1ccc(NC(=O)COC(=O)C2CC2)cc1	19%
CNCC(=O)N1CCC(Cc2cccc(C(N)=O)c2)C1 (centres unmarked)	28.26%
CC1CN(C)CCN1C(=O)NCc1cccs1 (centres unmarked)	20.19%
CC1Cc2ccccc2N1C(=O)c1ccccn1 (centres unmarked)	54.56%
C[S+]([O-])c1ncn(CCC(=O)Nc2cccc(F)c2)n1 (centres unmarked)	6.967%
Cc1ccoc1C(=O)N1CCCN(CC(N)=O)CC1	12.39%
CC(C)(C)c1nc(CN2CC[C@H](CO)[C@H](O)C2)no1	-1.498%
NCc1cc(Cl)c2c(c1)OCO2	8.691%
CC(C)C(C(=O)Nc1ccc(CCO)cc1)N(C)C (centres unmarked)	7.119%
Cc1ncccc1CN1CCCCC1(C)C(N)=O (centres unmarked)	-0.7047%
O=c1ccc(-c2csc(S(=O)(=O)N3CCCC3)c2)n[nH]1	-12.53%
N#Cc1ncn(CC(=O)c2ccc3c(c2)CCO3)n1	15.85%
c1snnc1CN1CCC[C@H]2OCC[C@H]21	7.69%
CN(Cc1cccc(C#N)c1)Cc1ccnc(N)c1	17.11%
FC(F)(F)Cn1cccn1	-11.57%
CCNC(=O)c1cc(-c2ccc(F)cc2)n[nH]1	69.42%
Cc1cnc(N[C@@H](CC(C)C)C(N)=O)nc1N(C)C	48.79%
Nc1ncnn1-c1ccc(C(F)(F)F)cn1	14.45%
CN(C)CC1CCN(CC(=O)NCC2CCCO2)CC1 (centres unmarked)	-1.31%
O=C1CN(Cc2ncc(-c3ccc(Cl)cc3)o2)CCN1	-3.27%
NCCNC(=O)c1ccc(-c2ccc(Cl)cc2)s1	96.41%
Cc1nscc1C(=O)OCCCn1cccn1	35.56%
N#CCC1(O)CN(C(=O)c2csc(I)c2)C1	19.43%
COCC(C)(O)C(F)(F)F (centres unmarked)	-5.844%
Cc1ccc(C(=O)NCCN2CCOCC2)c(C)c1	-10.22%
CCS(=O)(=O)Nc1cccc(C(C)=O)c1	35.11%
O=C(CCn1cncn1)N1CCN(c2nccs2)CC1	9.286%
CCOc1ncccc1CNc1cn[nH]c(=O)c1Cl	46.4%
Nc1nc(NCCc2cn[nH]c2)cc(C2CC(N)C2)n1 (centres unmarked)	20.88%
COc1cccc(Nc2ncnc(N)n2)c1	28.88%
CCOc1ncccc1C(=O)N1CCOCC(CO)C1 (centres unmarked)	4.739%
CCn1cc(Br)c(=O)c(NC(=O)c2cc(C)on2)c1	3.864%
CC1CCN(c2ccc(N)cn2)CC1	7.374%
COc1ncc(C(=O)NCc2ccc(F)cc2)cn1	26.94%
N#Cc1cccc(C2CNCCO2)c1 (centres unmarked)	43.83%
C1CNCCC(N2CCOCC2)C1 (centres unmarked)	-8.778%
OCC1CCN(Cc2ccccc2)CC1	4.114%
Cc1cccc(CS(=O)(=O)c2nncn2C)c1	-5.786%
O=S(=O)(CCN1CCOCC(O)C1)c1ccccc1 (centres unmarked)	40.71%
Cc1nc(CN2CCCNCC2)cs1	19.34%
COc1ccc(CNC(=O)CCNC(=O)C(C)C)cc1	-1.29%
Cc1nccc(C(=O)NC2CCc3nnc(C)n3C2)n1 (centres unmarked)	8.554%
OCCN1CCN(Cc2nc(C3CC3)no2)CC1	34.6%
CSCC(CCO)NC(=O)NCc1ccccc1Cl (centres unmarked)	34.07%
CC(O)c1ccc2c(c1)CC(=O)N2 (centres unmarked)	5.947%
COC(=O)NCC(=O)NC1CCCCNC1=O (centres unmarked)	7.836%
Cn1cc(C(=O)NCCc2ccccc2)ccc1=O	8.446%
CNCc1ccoc1	9.923%
CN(CCn1ccnc1)Cc1ccccc1OCCO	4.999%
CCn1ccnc1CN1CCC(=O)NCC1C (centres unmarked)	-0.9947%
O=C(NCC1(O)CCNC1)Nc1cccc(F)c1 (centres unmarked)	6.789%
O=C(CC1CCCN1)c1ccco1 (centres unmarked)	-10.23%
COc1c(CNCc2nnc(C)n2C)c(C)nn1C	-12.11%
CN(C)[C@@H]1C[C@@H](CO)N(C(=O)c2ccc(Cl)s2)C1	8.228%
CS(=O)(=O)n1cc(N)cn1	10.71%
CC(N)c1nccc(N)n1 (centres unmarked)	-8.376%
Cc1cnc(C(=O)N(C)Cc2cc(C)on2)cn1	-2.81%
COc1ccc(C(=O)Nn2cnnc2)cc1OC	5.466%
CCCn1ccnc1CNC(=O)CCC(=O)N(C)C	13.09%
Cc1cccc(CNC(=O)c2ccc(C#N)nc2)n1	18.24%
CC1CN(C)CCN1Cc1nnnn1-c1ccccc1 (centres unmarked)	-1.517%
O=C(c1cccnc1)N1CCC(C(O)C(F)(F)F)CC1 (centres unmarked)	13.03%

Source: ChEMBL document CHEMBL3988442, “University of Dundee, Small-Polar-MMV Screening Library” (2021).